Values from PubChem BioAssay AID1671195 (Yale University, 2021)

- Assay: 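Genes whose knockdown alters LDL uptake in liver cancer cells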 (primary screen)
- System: human Huh7 hepatoma cells
- Reagents: siRNA pool against human genes, 18 nM
- Timing: about 2 to 2.5 days of knockdown, then 8 h LDL uptake
- Challenge: DiI-labelled LDL at 30 µg/ml for 8 h, in lipoprotein-deficient serum medium
- Measured: 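Per-cell DiI-LDL intensity by automated imaging; well means scaled to the plate median and given as a robust z-score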
- Reading the numbers: robust z-score: higher = more LDL uptake after knockdown
- Call rule: 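a gene counts as active if at least two replicate z-scores exceed ±2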
The whole screen tested about 22,000 reagents; this is an unselected part. Of all reagents, about 1,510 (6.9%) were called active. 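Active includes knockdowns raising or lowering LDL uptake; positive z-scores mean more uptake, negative mean less.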 A number with no mark means an inactive call. The numbers tell different reagents against one gene apart.

target gene	pool no.	robust z-score, replicate 1	robust z-score, replicate 2	robust z-score, replicate 3
LOC442004 (retired record)	1	-0.73	-0.582	-0.44
MTF1 (metal regulatory transcription factor 1)	1	-0.817	-0.683	-0.571
VARS2 (valyl-tRNA synthetase 2, mitochondrial)	1	-0.325	0.58	-0.198
FKBP10 (FKBP prolyl isomerase 10)	1	0.0382	2.02	-0.132
ZNF3 (zinc finger protein 3)	1	-0.117	0.00884	-0.418
LOC388340 (retired record)	1	1.35	1.62	1.76
ETFRF1 (electron transfer flavoprotein regulatory factor 1)	1	0.454	0.348	0.147
GCM2 (GCM transcription factor 2)	1	1.37	1.16	2.11
ETFA (electron transfer flavoprotein subunit alpha)	1	-0.151	-0.209	-0.247
GSTT2 (glutathione S-transferase theta 2 (gene/pseudogene))	1	-0.0902	0.689	0.486
GARIN3 (golgi associated RAB2 interactor family member 3)	1	2.73 (active)	1.16	2.9
TSPAN16 (tetraspanin 16)	1	0.527	0.863	0.759
COX6B1 (cytochrome c oxidase subunit 6B1)	1	-0.782	-0.88	-1.07
HAO2 (hydroxyacid oxidase 2)	1	-0.175	-0.789	-0.757
GSTM2P1 (glutathione S-transferase mu 2 pseudogene 1)	1	0.229	-0.955	-0.00854
LAMA3 (laminin subunit alpha 3)	1	2.14	1.69	1.35
PEX10 (peroxisomal biogenesis factor 10)	1	1.01	1.19	1.05
ATP9A (ATPase phospholipid transporting 9A)	1	0.566	0.0441	0.338
ZNF778 (zinc finger protein 778)	1	0.83	0.0025	0.408
MYCBP (MYC binding protein)	1	2.86 (active)	2.04	1.9
RHOH (ras homolog family member H)	1	1.4	0.908	2.18
ZNF639 (zinc finger protein 639)	1	0.363	0.00108	0.231
STK36 (serine/threonine kinase 36)	1	0.358	-0.358	0.712

The list goes on (2 carried over from the part before).
target gene	pool no.	robust z-score, replicate 1	robust z-score, replicate 2	robust z-score, replicate 3
ZNF639 (zinc finger protein 639)	1	0.363	0.00108	0.231
STK36 (serine/threonine kinase 36)	1	0.358	-0.358	0.712
GRAMD4 (GRAM domain containing 4)	1	-1.49	-0.307	-1.2
UBE2H (ubiquitin conjugating enzyme E2 H)	1	1.14	-0.444	1.02
REST (RE1 silencing transcription factor)	1	-0.869	-0.553	-0.589
PDE11A (phosphodiesterase 11A)	1	-0.443	-1.16	-0.821
SPIB (Spi-B transcription factor)	1	-0.918	-0.815	-1.94
TFDP3 (transcription factor Dp family member 3)	1	0.415	0.267	0.508
E2F2 (E2F transcription factor 2)	1	1.32	1.33	1.32
RFC2 (replication factor C subunit 2)	1	1.97	1.7	1.04
MXI1 (MAX interactor 1, dimerization protein)	1	-0.455	-0.609	-0.523
HSP90AB1 (heat shock protein 90 alpha family class B member 1)	1	-0.141	-0.0674	-0.294
SETP14 (SET pseudogene 14)	1	0.267	0.221	-0.475
KCNS2	1	-0.311	0.0481	0.872
GLS2 (glutaminase 2)	1	-1.25	0.17	0.159
NIPAL3 (NIPA like domain containing 3)	1	-0.398	-0.348	-0.324
H3-5 (H3.5 histone)	1	1.47	0.754	0.546
RAB21 (RAB21, member RAS oncogene family)	1	-0.331	-1.73	-1.51
ZNF224 (zinc finger protein 224)	1	0.756	1.41	0.336
WDR55 (WD repeat domain 55)	1	0.231	0.898	-0.728
LOC255519 (retired record)	1	0.699	0.774	0.645
FBXL20 (F-box and leucine rich repeat protein 20)	1	-0.87	-0.051	-0.626
ZNF853 (zinc finger protein 853)	1	0.378	1.37	1.36
ZNF853 (zinc finger protein 853)	2	1.21	0.0898	0.465
SP100 (SP100 nuclear body protein)	1	-1.76	-2.01	-1.89
LOC440280 (retired record)	1	0.554	0.0517	0.352
KLF1 (KLF transcription factor 1)	1	-1.35	-1.32	-1.45
LOC389562 (retired record)	1	-0.121	0.134	-0.0728
MFGE8 (milk fat globule EGF and factor V/VIII domain containing)	1	3.67 (active)	3.52	2.51
PNLIP (pancreatic lipase)	1	0.869	1.38	1.41
TTC29 (tetratricopeptide repeat domain 29)	1	-0.695	-0.156	0.206
LRCH1	1	2.06	-1.02	0.977
UGT1A1 (UDP glucuronosyltransferase family 1 member A1)	1	0.864	1.22	1.75
NIPBL (NIPBL cohesin loading factor)	1	0.0895	0.537	-0.591
FLACC1 (flagellum associated containing coiled-coil domains 1)	1	0.892	-0.0908	1
CWF19L2 (CWF19 like cell cycle control factor 2)	1	0.435	0.706	0.49
DPP6 (dipeptidyl peptidase like 6)	1	-1.19	-0.904	-0.711
LOC401445 (retired record)	1	0.896	-0.298	0.507
MAP3K14 (mitogen-activated protein kinase kinase kinase 14)	1	-0.354	0.805	0.19
PARP16 (poly(ADP-ribose) polymerase family member 16)	1	-1.14	0.987	-0.349
SIAH1 (siah E3 ubiquitin protein ligase 1)	1	-0.482	-0.396	-1.33
LOC389656 (retired record)	1	-0.133	-0.245	-0.288
SHOX2 (SHOX homeobox 2)	1	-1.13	-0.809	0.331
MNAT1 (MNAT1 component of CDK activating kinase)	1	-0.365	-0.229	-0.667
TBL2 (transducin beta like 2)	1	0.605	0.729	0.0574
MC2R (melanocortin 2 receptor)	1	-0.0954	0.797	0.068
SWT1 (SWT1 RNA endoribonuclease homolog)	1	-0.864	-1.51	-0.112
